# Test results taken from PubChem BioAssay AID2685 (National Center for Advancing Translational Sciences (NCATS), 2010).
# In all, about 320,000 compounds went through this assay and about 2,100 (0.66%) were called active. This list was built around the results that the source calls inconclusive (neither active nor inactive); the mix of calls is not that of the screen. The call rests on the fitted dose curve; in most records, active means well fitted inhibition curve with a large enough effect in the signal ratio, with a control signal flat (not every such curve was filed as active); inconclusive means small, poorly fitted or top-dose-only effect, or effect the other way, or a change in a side signal; inactive means flat fitted curve, though single readings scatter; the % refers to the signal ratio. Potencies beside an inconclusive call are fits to weak or partial responses and may not hold up.
# Experiment: qHTS Assay for Lipid Storage Modulators in Drosophila S3 Cells
# Settings: BODIPY lipid droplet fluorescence, 18-24 h, cells fed with added oleic acid; lipid storage change, negative = inhibition: at 46.1 µM (top of the series) unless noted
# Procedure, shortened: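 Drosophila S3 cells got compounds at several concentrations plus oleic acid (400 uM solution). Laser-scanning cytometry with 488 nm excitation read lipid droplets at 500-530 nm and cells at 575-640 nm. Percent activity was relative to 20 uM Triacsin C.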
# On the % scale 0 is the no-effect control and ±100 the full control effect; potency means the concentration at half of the fitted maximal effect.
SMILES,"lipid storage change, negative = inhibition",Potency
Cc1ccc(S(=O)(=O)/N=C(/c2ccc(F)cc2)N2CCCCC2)cc1,inconclusive: -4.25%,–
Cc1cc(C)c(C)c(S(=O)(=O)N2CCC(C(=O)NCC(c3ccccc3)N(C)C)CC2)c1C (configuration not stated),inconclusive: -10.9%,–
CC(OC(=O)c1cccs1)C(=O)Nc1nc(-c2ccccc2)cs1 (configuration not stated),inconclusive: -20.3%,–
Cc1cc(C)n(CCC(=O)N=Nc2c(O)[nH]c3ccc(Br)cc23)n1,inactive: 4.25%,–
COc1ccc(CN(CC(=O)NCc2ccc(F)cc2)C(=O)c2ccco2)cc1,inconclusive: -45.1%,–
O=C(COc1ccccc1Cl)NCCCN1CCOCC1,inconclusive: -13.3%,–
COc1ccc(C(C)(C)C)cc1NC(=O)c1cccc(S(=O)(=O)N2CCN(C(C)=O)CC2)c1,inconclusive: 74.8%,–
CCNc1oc(-c2cccc3ccccc23)nc1C#N,inconclusive: 14.8%,–
NC(=S)c1cc2cc(Cl)ccc2oc1=O,–,"inconclusive: 0.13 µM [falling, full curve, poor fit]"
COc1ccc(NS(=O)(=O)c2csc(C(=O)N3CCCC3)c2)cc1,inconclusive: 41.2%,–
CC(C)NC(=O)c1cccc(NC(=O)CC2SC(N3CCCCC3)=NC2=O)c1 (configuration not stated),inconclusive,–
O=C(c1ccc(F)cc1)C1CCN(C(=S)Nc2ccc(F)cc2)CC1,inconclusive: -21.8%,–
Cc1cccc(C(C)n2nnc3ccccc32)c1O (configuration not stated),inconclusive: 39.4%,–
CCOc1ccc(S(=O)(=O)N(C)CC(=O)N2CCCC2)cc1,–,"inconclusive: 6.51 µM [falling, single point]"
CC(C)CCCNc1nc(N2CCOCC2)nc(N2CCOCC2)n1,inconclusive: 18.4%,–
CC(C(=O)Nc1ccccc1F)N1CCN(S(=O)(=O)c2ccc(C(F)(F)F)cc2)CC1 (configuration not stated),inconclusive,–
Cc1ccc(NS(=O)(=O)c2cccs2)c(C)c1,inconclusive: 123%,–
COc1ccc(/C=C/C(=O)NC(=S)NNC(=O)c2ccco2)cc1OC,inconclusive: -16.9%,–
CC(COc1cccc2ccccc12)CN1CCN(C)CC1 (configuration not stated),inconclusive: -40.5%,–
COc1ccc(OC)c(S(=O)(=O)N2CCC(C(=O)N3CCCC3)CC2)c1,inconclusive: 71.1%,–
COc1ccc(NC(=O)Cn2c3ccccc3c3nc4n(c(=O)c32)CCS4)cc1OC,–,"inconclusive: 29.1 µM [falling, single point]"
Cc1oc2c(c1C(=O)NCc1cccnc1)C(=O)c1ccccc1C2=O,–,"inconclusive: 6.51 µM [falling, partial curve]"
O=C(Nc1ccccc1)N(C1=NCCC1)c1ccc(OC(F)F)cc1,inconclusive: 23.7%,–
Cc1ccc(C)c(C(=O)CSc2n[nH]c(C)n2)c1,–,"inconclusive: 13 µM [activator, partial curve]"
CCc1noc(C)c1C(=O)Nc1nc(-c2ccccc2)cs1,inconclusive,–
COC(=O)c1ccc(CNC(=O)c2ccc3c(c2)OCCO3)cc1,inconclusive: 4.63%,–

SMILES,"lipid storage change, negative = inhibition",Potency
COc1cccc(OC)c1C(=O)NC(=S)Nc1ccc2c(c1)OCCO2,inconclusive: 7.14%,–
COc1ccc(N(C(=O)CNC(=O)c2ccco2)C(C(=O)NCC2CCCO2)c2ccccc2)cc1 (configuration not stated),inconclusive: -56.8%,–
O=C(COc1cccnc1[N+](=O)[O-])Nc1cccc2ccccc12,–,"inconclusive: 6.51 µM [activator, single point]"
CC1(C)CC(=NO)CC(C)(C)N1,–,"inconclusive: 4.11 µM [activator, single point]"
Fc1ccc(Oc2nnnn2-c2ccccc2)cc1,inconclusive: 138%,–
Cc1ccc(S(=O)(=O)NCC(c2ccccc2)N2CCN(c3ccc(F)cc3)CC2)cc1 (configuration not stated),–,"inconclusive: 5.8 µM [falling, full curve, poor fit]"
O=C(c1cccc(S(=O)(=O)N2CCOCC2)c1)N(Cc1ccco1)Cc1cccs1,inconclusive: 5.19%,–
Cc1nc2ccccn2c1C(=O)NNS(=O)(=O)c1ccc(Cl)cc1,inconclusive: -28.8%,–
O=C(Nc1nc2ccccc2[nH]1)c1cccc(Cl)c1,inconclusive: -100%,–
Cn1nnnc1Sc1ncnc2scc(-c3ccccc3C(F)(F)F)c12,inconclusive: 10.7%,–
Cc1ccc(Sc2cc(C(=O)NCCN(C)C)c3ccccc3n2)cc1,inconclusive: 15.4%,–
COc1ccc(S(=O)(=O)N2CCC(C(=O)NCCC(=O)NCc3ccccc3OC)CC2)cc1,–,"inconclusive: 11.6 µM [activator, partial curve, poor fit]"
CCOC(=O)C1CCN(C(=O)c2cc3c(C)cc(C)cc3[nH]2)CC1,inconclusive: 13.4%,–
CC(=O)N1CCN(CC(O)COc2ccc(S(=O)(=O)N3CCOCC3)cc2)CC1 (configuration not stated),inconclusive: -2.9%,–
COC(=O)c1c(-c2ccccc2)csc1NC(=O)C1CC=CCC1C(=O)O (configuration not stated),inconclusive: 3.83%,–
COc1ccc(C2=NOC3(CC(=O)N(c4ccc(C)cc4)C3=O)C2)c(OC)c1 (configuration not stated),inconclusive: -47%,–
Nc1nnc(CSCc2ccc(F)cc2)s1,inconclusive: 36.1%,–
NC(=O)C1CCCN(C(=O)c2ccc3c(c2)NC(=O)CS3)C1 (configuration not stated),–,"inconclusive: 16.4 µM [activator, partial curve]"
O=C(OCC1OC(n2ncc(=O)[nH]c2=O)C(OC(=O)c2ccccc2)C1OC(=O)c1ccccc1)c1ccccc1 (configuration not stated),inconclusive: 17%,–
N#CCN1C(=O)C(=O)N(Cc2cccc(C(F)(F)F)c2)C1=O,inconclusive: 4.15%,–
Cc1ccc(NC(=O)CN(C)C(=O)Cn2nnc(-c3ccccc3)n2)cc1,inconclusive,–
O=C(CCc1nnc2ccc(N3CCCCC3)nn12)NCc1ccco1,–,"inconclusive: 23.1 µM [activator, partial curve]"
COc1cccc(CNC(=O)Cn2cc3c(n2)CCCC3)c1,inconclusive: 3.06%,–
CC(OC(=O)CCN1C(=O)C2CC=CCC2C1=O)C(=O)c1ccc(F)cc1 (configuration not stated),inconclusive: 19%,–
CC(C)(CO)[C@@H](O)C(=O)NCCC(=O)O,inconclusive: -31.9%,–
CCOc1ccc(CSCCNC(=S)Nc2ccccc2)cc1,inconclusive: -25.5%,–

# Grouped by structure, those above containing a cyano group (two)
SMILES,"lipid storage change, negative = inhibition",Potency
CCNc1oc(-c2cccc3ccccc23)nc1C#N,inconclusive: 14.8%,–
N#CCN1C(=O)C(=O)N(Cc2cccc(C(F)(F)F)c2)C1=O,inconclusive: 4.15%,–
